In data set [1] the target is T1, RAD-51 (Caenorhabditis elegans) (UniProt Q7K7I8).
T1 sequence (looked up): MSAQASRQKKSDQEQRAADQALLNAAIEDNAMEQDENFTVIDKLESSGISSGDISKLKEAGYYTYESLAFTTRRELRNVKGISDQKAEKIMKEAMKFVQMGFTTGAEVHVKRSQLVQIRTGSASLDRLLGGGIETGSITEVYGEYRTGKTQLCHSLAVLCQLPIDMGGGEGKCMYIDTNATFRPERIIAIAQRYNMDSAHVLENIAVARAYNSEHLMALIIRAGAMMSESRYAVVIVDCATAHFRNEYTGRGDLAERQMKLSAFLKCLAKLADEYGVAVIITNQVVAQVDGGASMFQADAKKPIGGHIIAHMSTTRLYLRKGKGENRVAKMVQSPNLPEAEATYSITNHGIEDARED
The experiment in a line: DNaseI protection. The note with it: recombinant protein; residues 1-357; label: 5'-fluorescein; single-stranded DNA.

For data set [2], the target named is T1, RAD-51 (Caenorhabditis elegans). Put plainly: EMSA. The note with it: ATP; EMSA: 20 mM triethanolamine-HCl pH 7.5, 8% glycerol, 1 mM DTT, 50 mM sodium acetate, 2 mM MgCl2 + 2 mM nucleotide (or 10 mM EDTA), 100 nM (nt) DNA, 25 °C; recombinant protein; residues 1-357; label: 5'-32P or 5'-fluorescein; single-stranded DNA.

For at least one entry, the source does not settle the construct or the ends of the probe. At least one verdict was read from the data and is not stated in words by the source. Where a protein sequence is shown, tags need not be part of it.

Take “AGCTACCATGCCTGCACGAATTAAGCAATTCGTAATCATGGGTCAAAATCAATCTAAAGTATATATGAGTAAACTTGGTCTGACAGTTACCAATGCTTAATCAGTGAGGCACCTATCTCAGCGATCTGTCTATTT [135-mer ssDNA]”: in data set [1], the binding result was “binds”. For “ACGCTGCCGAATTCTACCAGTGCCTTGCTAGGACATCTTTGCCCACCTGCAGGTTCACCC [60-mer ssDNA]”, the binding result in data set [2] was “binds”.

Source of the values: PMC4518479, “Rad51 Paralogs Remodel Pre-synaptic Rad51 Filaments to Stimulate Homologous Recombination” (Cell, 2015).
